{"source": "the supplement of paper PMC7024190", "note": "Structures can show the parent of a compound that is named as a salt. This is one part of the list. Single values are uncertain here, since repeats match poorly.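 Human embryonic kidney cells were transiently transfected with a plasmid bearing a Renilla luciferase gene under the HSV-TK promoter. This first-round screen tests roughly ten thousand compounds for ones that increase reporter output.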", "data": [{"test_system": "HEK 293FT", "experiment": "log relative Renilla luciferase luminescence (reporter expression vs reference, reference not stated) (log (base not stated)); higher = higher recombinant reporter expression", "settings": "10 µM; time after transfection 48 h", "values": [{"compound": "C=C(C)[C@H]1COc2cc3oc(=O)ccc3cc2O1", "note": "[obliquin]", "log": 0.0665}, {"compound": "NC(=O)N1c2ccccc2CC(=O)c2ccccc21", "note": "[oxcarbazepine]", "log": 0.125}, {"compound": "O=C(C=Cc1ccc(O)cc1)c1ccccc1O", "note": "[2',4-dihydroxychalcone]", "log": 0.0499}, {"compound": "COc1cc2oc3cc(OC)c(OC)c(CC=C(C)C)c3c(=O)c2c(O)c1CC=C(C)C", "note": "[1-hydroxy-3,6,7-trimethoxy-2,8-diprenylxanthone]", "log": -0.00831}, {"compound": "CC(C)Cn1cnc2c(N)nc3ccccc3c21", "note": "[imiquimod]", "log": 0.217}, {"compound": "CC(=O)OCC(=O)[C@@]1(O)[C@H](OC(C)=O)C[C@H]2[C@@H]3CCC4=CC(=O)C=C[C@]4(C)[C@@]3(F)[C@@H](O)C[C@@]21C", "note": "[triamcinolone diacetate]", "log": -0.145}, {"compound": "NCCc1cc[nH]n1", "note": "[betazole hydrochloride]", "log": -0.0431}, {"compound": "Cc1c(NC(C)C)c(=O)n(-c2ccccc2)n1C", "note": "[ramifenazone]", "log": 0.0224}, {"compound": "CC(C[N+](C)(C)C)OC(N)=O", "note": "(centres undefined) [bethanechol chloride]", "log": -0.128}, {"compound": "CC(=O)Oc1ccc(-c2coc3c4c(c(CC=C(C)C)c(OC(C)=O)c3c2=O)OC(C)(C)C=C4)cc1OC(C)=O", "note": "[pomiferin triacetate]", "log": -0.431}, {"compound": "CCCCCCCCCCOc1cc2c(O)c(C(=O)OCC)cnc2cc1OCC", "note": "[decoquinate]", "log": 0.115}, {"compound": "CN(C)CCN(Cc1ccc(Cl)cc1)c1ccccn1", "note": "[chloropyramine hydrochloride]", "log": -0.113}, {"compound": "COc1ccc([C@@H]2Sc3ccccc3N(CCN(C)C)C(=O)[C@@H]2OC(C)=O)cc1", "note": "[diltiazem hydrochloride]", "log": -0.138}, {"compound": "Cc1cn([C@H]2C[C@H](N=[N+]=[N-])[C@@H](CO)O2)c(=O)[nH]c1=O", "note": "[zidovudine [azt]]", "log": 0.0616}, {"compound": "O=C(O)C[C@H](O)C[C@H](O)/C=C/c1c(C2CC2)nc2ccccc2c1-c1ccc(F)cc1", "note": "[pitavastatin calcium]", "log": -0.186}, {"compound": "Cc1ccc(C)c(OCCCC(C)(C)C(=O)O)c1", "note": "[gemfibrozil]", "log": 0.151}, {"compound": "COC(=O)c1c(C)c2c(c(C)c1O)OC(=O)c1c(C)c(Cl)c(O)c(Cl)c1O2", "note": "[leoidin]", "log": -0.0633}, {"compound": "O=C(CCCN1CCC(O)(c2ccc(Cl)cc2)CC1)c1ccc(F)cc1", "note": "[haloperidol]", "log": 0.101}, {"compound": "NC(=O)c1ccc[n+]([C@@H]2O[C@H](COP(=O)([O-])OP(=O)(O)OC[C@H]3O[C@@H](n4cnc5c(N)ncnc54)[C@H](O)[C@@H]3O)[C@@H](O)[C@H]2O)c1", "note": "[nadide]", "log": -0.294}, {"compound": "NCC(=O)CCC(=O)O", "note": "[aminolevulinic acid hydrochloride]", "log": 0.215}, {"compound": "COc1ccc(CN(CCN(C)C)c2ncccn2)cc1", "note": "[thonzylamine hydrochloride]", "log": 0.0895}, {"compound": "COc1c2ccoc2cc2oc(C)cc(=O)c12", "note": "[visnagin]", "log": -0.0201}, {"compound": "CCCCCC(=O)Cc1cc(O)cc(O)c1C(=O)Oc1cc(CC(=O)CCCCC)c(C(=O)O)c(OC)c1", "note": "[arthonioic acid]", "log": 0.0985}, {"compound": "COc1ccc(-c2coc3cc(O)ccc3c2=O)c(O)c1O", "note": "[koparin]", "log": 0.185}, {"compound": "NCCS", "note": "[cysteamine hydrochloride]", "log": -0.113}, {"compound": "COCCOC(=O)C1=C(C)NC(C)=C(C(=O)OC(C)C)C1c1cccc([N+](=O)[O-])c1", "note": "(centres undefined) [nimodipine]", "log": 0.228}, {"compound": "CN1C(C(=O)Nc2ccccn2)=C(O)c2ccccc2S1(=O)=O", "note": "[piroxicam]", "log": -0.0622}, {"compound": "COc1c(C)c2c(c(O)c1C/C=C(\\C)CCC(=O)OCCN1CCOCC1)C(=O)OC2", "note": "[mycophenolate mofetil]", "log": -0.209}, {"compound": "C[C@]12CCC(=O)C=C1C=C[C@@H]1[C@@H]2CC[C@@]2(C)[C@H]1CC[C@@]21CCC(=O)O1", "note": "[canrenone]", "log": -0.141}, {"compound": "CC1(C)[C@@H](O)CC[C@]2(C)[C@H]3C(=O)C=C4[C@@H]5C[C@@](C)(C(=O)O)CC[C@]5(C)CC[C@@]4(C)[C@]3(C)CC[C@@H]12", "note": "[enoxolone]", "log": 0.0271}, {"compound": "COc1ccc(CC(=O)c2ccc(O)cc2O)cc1", "note": "[ononetin]", "log": -0.0363}, {"compound": "Nc1nc(=O)c2c([nH]1)NCC(CNc1ccc(C(=O)N[C@@H](CCC(=O)O)C(=O)O)cc1)=N2", "note": "[dihydrofolic acid]", "log": -0.188}, {"compound": "CCOC(=O)c1ccc(O)cc1", "note": "[ethyl paraben]", "log": -0.0943}, {"compound": "CC(O)CC(C)(C)O", "note": "(centres undefined) [hexylene glycol]", "log": 0.141}, {"compound": "COc1ccc2cc1Oc1ccc(cc1)C[C@H]1c3c(cc4c(c3Oc3cc5c(cc3OC)CCN(C)[C@@H]5C2)OCO4)CCN1C", "note": "[cepharanthine]", "log": 0.0889}, {"compound": "Cn1c(=O)c2[nH]c(Br)nc2n(C)c1=O", "note": "[pamabrom]", "log": 0.113}, {"compound": "CC(C)(C)NCC(O)c1ccc(O)c(CO)c1", "note": "(centres undefined) [albuterol]", "log": -0.0924}, {"compound": "Cc1c(OCC(F)(F)F)ccnc1C[S+]([O-])c1nc2ccccc2[nH]1", "note": "(centres undefined) [lansoprazole]", "log": 0.0949}, {"compound": "O=C(/C=C/c1ccccc1)c1ccc(O)cc1O", "note": "[2',4'-dihydroxychalcone]", "log": 0.174}, {"compound": "O=C([O-])C(O)[C@H](O)[C@@H](O)[C@H](O)[C@H](O)CO.O=C([O-])C(O)[C@H](O)[C@@H](O)[C@H](O)[C@H](O)CO.[Ca+2]", "note": "(some centres undefined) [calcium gluceptate]", "log": 0.0937}, {"compound": "Cn1c(=O)c2c(ncn2C)n(C)c1=O", "note": "[caffeine]", "log": -0.0775}, {"compound": "CN(C)CCCC1(c2ccc(F)cc2)OCc2cc(C#N)ccc21", "note": "(centres undefined) [citalopram hydrobromide]", "log": -1.69}, {"compound": "CCCC(CCC)C(=O)O", "note": "[valproate sodium]", "log": -0.0137}, {"compound": "Cc1onc(-c2ccccc2)c1C(=O)N[C@@H]1C(=O)N2[C@@H]1SC(C)(C)[C@@H]2C(=O)O", "note": "[oxacillin sodium]", "log": -0.0406}, {"compound": "COc1cc2c(cc1OC)C(=O)OC2", "note": "[metameconine]", "log": 0.0637}, {"compound": "OCC(O)CN1CCN(c2ccccc2)CC1", "note": "(centres undefined) [dropropizine]", "log": 0.0965}, {"compound": "CN(C)CCC(c1ccc(Cl)cc1)c1ccccn1", "note": "(centres undefined) [chlorpheniramine maleate]", "log": -0.103}, {"compound": "COc1c2c(cc3occ(-c4ccc5c(c4)OCO5)c(=O)c13)OC(C)(C)C=C2", "note": "[methyl robustone]", "log": 0.00672}, {"compound": "COC1=CC(=O)C[C@@H](C)[C@]12Oc1c(Cl)c(OC)cc(OC)c1C2=O", "note": "[griseofulvin]", "log": 0.0362}]}]}
